The record followed here is article PMC6599078.

Sequences of proteins named here, by UniProt entry; tags and fusion partners are left off. Residues count along the entry.
UniProt Q99835, residues 28-787: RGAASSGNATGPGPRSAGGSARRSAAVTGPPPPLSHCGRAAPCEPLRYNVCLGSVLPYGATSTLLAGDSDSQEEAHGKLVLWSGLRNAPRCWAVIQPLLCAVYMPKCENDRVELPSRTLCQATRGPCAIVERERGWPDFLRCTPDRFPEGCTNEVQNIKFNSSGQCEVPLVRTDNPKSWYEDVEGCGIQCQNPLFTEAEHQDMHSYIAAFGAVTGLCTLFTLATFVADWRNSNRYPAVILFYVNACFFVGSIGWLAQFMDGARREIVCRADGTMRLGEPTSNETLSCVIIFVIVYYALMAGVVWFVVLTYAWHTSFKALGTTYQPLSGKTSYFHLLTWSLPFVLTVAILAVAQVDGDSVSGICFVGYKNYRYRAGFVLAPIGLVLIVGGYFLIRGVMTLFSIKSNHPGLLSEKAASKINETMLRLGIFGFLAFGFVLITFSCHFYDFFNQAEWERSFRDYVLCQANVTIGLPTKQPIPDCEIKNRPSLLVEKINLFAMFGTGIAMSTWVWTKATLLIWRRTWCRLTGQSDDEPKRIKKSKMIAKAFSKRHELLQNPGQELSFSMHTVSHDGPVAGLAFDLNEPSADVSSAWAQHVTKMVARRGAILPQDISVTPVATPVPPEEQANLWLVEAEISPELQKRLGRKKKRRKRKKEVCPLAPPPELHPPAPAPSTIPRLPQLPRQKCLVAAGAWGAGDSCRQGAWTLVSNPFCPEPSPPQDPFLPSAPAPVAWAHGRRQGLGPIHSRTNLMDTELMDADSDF
UniProt P54252: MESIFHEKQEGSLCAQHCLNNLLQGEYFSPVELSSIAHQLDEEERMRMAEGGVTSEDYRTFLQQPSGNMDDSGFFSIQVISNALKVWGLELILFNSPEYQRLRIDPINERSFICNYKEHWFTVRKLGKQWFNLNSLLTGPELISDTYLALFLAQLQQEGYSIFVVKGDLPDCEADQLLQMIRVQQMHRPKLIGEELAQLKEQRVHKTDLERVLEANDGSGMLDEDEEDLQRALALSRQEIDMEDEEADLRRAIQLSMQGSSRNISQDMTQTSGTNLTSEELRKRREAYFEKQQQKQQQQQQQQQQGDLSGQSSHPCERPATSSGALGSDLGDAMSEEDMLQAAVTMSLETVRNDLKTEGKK
UniProt P25098: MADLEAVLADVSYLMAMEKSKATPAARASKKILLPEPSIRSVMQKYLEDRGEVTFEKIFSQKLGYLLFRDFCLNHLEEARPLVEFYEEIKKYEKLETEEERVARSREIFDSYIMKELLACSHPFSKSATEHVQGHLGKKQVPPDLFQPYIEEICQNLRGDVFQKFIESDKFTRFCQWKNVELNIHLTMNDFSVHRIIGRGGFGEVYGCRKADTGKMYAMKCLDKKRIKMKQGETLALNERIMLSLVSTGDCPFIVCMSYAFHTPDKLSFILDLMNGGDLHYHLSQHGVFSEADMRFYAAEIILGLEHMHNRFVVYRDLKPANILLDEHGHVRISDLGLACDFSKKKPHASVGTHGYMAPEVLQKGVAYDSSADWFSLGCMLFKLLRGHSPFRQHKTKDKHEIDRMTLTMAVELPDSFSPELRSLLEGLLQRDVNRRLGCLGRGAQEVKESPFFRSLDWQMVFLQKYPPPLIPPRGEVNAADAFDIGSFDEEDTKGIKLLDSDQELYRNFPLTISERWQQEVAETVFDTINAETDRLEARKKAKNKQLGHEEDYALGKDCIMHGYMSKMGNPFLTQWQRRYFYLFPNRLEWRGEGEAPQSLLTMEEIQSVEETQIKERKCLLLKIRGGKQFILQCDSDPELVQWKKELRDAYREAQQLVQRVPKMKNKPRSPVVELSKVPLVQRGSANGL

Assay [1] deals with Flag-SMO (UniProt Q99835). Put plainly: co-IP; Flag-PTCH1 or Flag-SMO immunoprecipitated from MCF7 cells with or without TSPAN8 overexpression, with or without ATXN3 shRNA; cells treated with 100 ng/ml SHH for 6 h.
Assay [2] deals with T1, Flag-PTCH1 (UniProt Q13635).
T1 sequence: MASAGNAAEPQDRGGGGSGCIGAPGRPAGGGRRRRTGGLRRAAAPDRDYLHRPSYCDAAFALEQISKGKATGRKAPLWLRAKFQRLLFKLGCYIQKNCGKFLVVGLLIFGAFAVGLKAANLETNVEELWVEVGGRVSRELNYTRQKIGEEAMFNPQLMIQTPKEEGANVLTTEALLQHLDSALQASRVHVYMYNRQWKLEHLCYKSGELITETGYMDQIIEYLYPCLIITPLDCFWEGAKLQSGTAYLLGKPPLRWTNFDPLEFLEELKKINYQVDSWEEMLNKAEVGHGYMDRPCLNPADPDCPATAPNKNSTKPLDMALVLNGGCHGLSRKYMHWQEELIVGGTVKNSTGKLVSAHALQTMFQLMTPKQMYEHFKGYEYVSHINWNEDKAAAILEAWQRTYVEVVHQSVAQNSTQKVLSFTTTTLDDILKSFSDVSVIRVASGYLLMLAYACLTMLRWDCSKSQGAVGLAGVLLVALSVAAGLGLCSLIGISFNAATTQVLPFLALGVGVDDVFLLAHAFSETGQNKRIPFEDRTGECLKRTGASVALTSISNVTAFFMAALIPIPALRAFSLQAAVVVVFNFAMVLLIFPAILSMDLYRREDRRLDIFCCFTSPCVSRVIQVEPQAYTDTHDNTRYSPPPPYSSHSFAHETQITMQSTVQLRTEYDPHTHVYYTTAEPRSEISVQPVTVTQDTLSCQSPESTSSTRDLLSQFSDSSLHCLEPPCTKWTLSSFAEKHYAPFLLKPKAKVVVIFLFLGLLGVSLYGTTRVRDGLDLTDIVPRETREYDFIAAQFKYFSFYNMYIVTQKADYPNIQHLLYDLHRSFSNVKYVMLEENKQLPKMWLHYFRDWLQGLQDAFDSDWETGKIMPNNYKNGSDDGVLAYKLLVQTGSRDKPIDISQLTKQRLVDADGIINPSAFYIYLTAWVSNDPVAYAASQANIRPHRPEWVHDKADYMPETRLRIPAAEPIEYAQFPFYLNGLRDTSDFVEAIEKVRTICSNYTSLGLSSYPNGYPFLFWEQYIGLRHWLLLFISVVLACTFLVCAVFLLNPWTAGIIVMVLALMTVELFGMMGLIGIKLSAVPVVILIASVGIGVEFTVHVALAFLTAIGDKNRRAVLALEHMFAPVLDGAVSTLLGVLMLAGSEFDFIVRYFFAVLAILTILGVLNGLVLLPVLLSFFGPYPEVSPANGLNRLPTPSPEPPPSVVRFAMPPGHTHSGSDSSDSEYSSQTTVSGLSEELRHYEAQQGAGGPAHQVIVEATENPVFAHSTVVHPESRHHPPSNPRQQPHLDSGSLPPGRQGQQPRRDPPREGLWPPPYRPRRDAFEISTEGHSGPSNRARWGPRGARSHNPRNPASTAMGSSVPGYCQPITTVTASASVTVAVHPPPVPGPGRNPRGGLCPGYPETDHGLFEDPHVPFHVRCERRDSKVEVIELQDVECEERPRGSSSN
The description is as above.

The target of assay [3] is Flag-ATXN3 (UniProt P54252). The experiment in a line: co-IP; Flag-ATXN3 co-transfected with GFP or GFP-TSPAN8, or with control siRNA or TSPAN8 siRNA, in HEK293T cells (text: MCF-7 cells); immunoprecipitation and immunoblotting.
The target of assay [4] is T2, HA-TSPAN8 (UniProt P19075).
T2 sequence: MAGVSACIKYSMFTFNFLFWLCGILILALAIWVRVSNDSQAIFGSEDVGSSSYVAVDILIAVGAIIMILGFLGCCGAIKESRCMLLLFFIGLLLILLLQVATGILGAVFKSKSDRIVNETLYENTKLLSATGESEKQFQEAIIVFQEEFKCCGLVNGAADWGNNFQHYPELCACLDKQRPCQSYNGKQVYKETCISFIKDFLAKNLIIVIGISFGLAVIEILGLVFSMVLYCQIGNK
Put plainly: co-IP; co-immunoprecipitation of HA-TSPAN8 with SHH and PTCH1 (Supplementary Fig. 4a, b); cells lysed in RIPA buffer at 4 °C, magnetic beads 12 h at 4 °C; cell line not stated.

These are yes or no findings as the source states them, for the method shown. Binding seen in cells or lysates may run through a third protein. Some entries that bind do so weakly or less than the wild type. For some of these results: Tags and fused reporters may be left off the sequences shown.

In the case of “GRK2 protein kinase (from UniProt P25098 1-689) (enzyme)”, the binding entry in assay [1] and in assay [2] was “binds” throughout.

B1: PTCH1 (found with Flag-ATXN3) (receptor, UniProt Q13635 1-1447)
chain: MASAGNAAEPQDRGGGGSGCIGAPGRPAGGGRRRRTGGLRRAAAPDRDYLHRPSYCDAAFALEQISKGKATGRKAPLWLRAKFQRLLFKLGCYIQKNCGKFLVVGLLIFGAFAVGLKAANLETNVEELWVEVGGRVSRELNYTRQKIGEEAMFNPQLMIQTPKEEGANVLTTEALLQHLDSALQASRVHVYMYNRQWKLEHLCYKSGELITETGYMDQIIEYLYPCLIITPLDCFWEGAKLQSGTAYLLGKPPLRWTNFDPLEFLEELKKINYQVDSWEEMLNKAEVGHGYMDRPCLNPADPDCPATAPNKNSTKPLDMALVLNGGCHGLSRKYMHWQEELIVGGTVKNSTGKLVSAHALQTMFQLMTPKQMYEHFKGYEYVSHINWNEDKAAAILEAWQRTYVEVVHQSVAQNSTQKVLSFTTTTLDDILKSFSDVSVIRVASGYLLMLAYACLTMLRWDCSKSQGAVGLAGVLLVALSVAAGLGLCSLIGISFNAATTQVLPFLALGVGVDDVFLLAHAFSETGQNKRIPFEDRTGECLKRTGASVALTSISNVTAFFMAALIPIPALRAFSLQAAVVVVFNFAMVLLIFPAILSMDLYRREDRRLDIFCCFTSPCVSRVIQVEPQAYTDTHDNTRYSPPPPYSSHSFAHETQITMQSTVQLRTEYDPHTHVYYTTAEPRSEISVQPVTVTQDTLSCQSPESTSSTRDLLSQFSDSSLHCLEPPCTKWTLSSFAEKHYAPFLLKPKAKVVVIFLFLGLLGVSLYGTTRVRDGLDLTDIVPRETREYDFIAAQFKYFSFYNMYIVTQKADYPNIQHLLYDLHRSFSNVKYVMLEENKQLPKMWLHYFRDWLQGLQDAFDSDWETGKIMPNNYKNGSDDGVLAYKLLVQTGSRDKPIDISQLTKQRLVDADGIINPSAFYIYLTAWVSNDPVAYAASQANIRPHRPEWVHDKADYMPETRLRIPAAEPIEYAQFPFYLNGLRDTSDFVEAIEKVRTICSNYTSLGLSSYPNGYPFLFWEQYIGLRHWLLLFISVVLACTFLVCAVFLLNPWTAGIIVMVLALMTVELFGMMGLIGIKLSAVPVVILIASVGIGVEFTVHVALAFLTAIGDKNRRAVLALEHMFAPVLDGAVSTLLGVLMLAGSEFDFIVRYFFAVLAILTILGVLNGLVLLPVLLSFFGPYPEVSPANGLNRLPTPSPEPPPSVVRFAMPPGHTHSGSDSSDSEYSSQTTVSGLSEELRHYEAQQGAGGPAHQVIVEATENPVFAHSTVVHPESRHHPPSNPRQQPHLDSGSLPPGRQGQQPRRDPPREGLWPPPYRPRRDAFEISTEGHSGPSNRARWGPRGARSHNPRNPASTAMGSSVPGYCQPITTVTASASVTVAVHPPPVPGPGRNPRGGLCPGYPETDHGLFEDPHVPFHVRCERRDSKVEVIELQDVECEERPRGSSSN
For the molecule B1, in assay [3], the binding entry was “binds”.

B2: PTCH1 (found with HA-TSPAN8) (receptor, UniProt Q13635 1-1447)
chain: MASAGNAAEPQDRGGGGSGCIGAPGRPAGGGRRRRTGGLRRAAAPDRDYLHRPSYCDAAFALEQISKGKATGRKAPLWLRAKFQRLLFKLGCYIQKNCGKFLVVGLLIFGAFAVGLKAANLETNVEELWVEVGGRVSRELNYTRQKIGEEAMFNPQLMIQTPKEEGANVLTTEALLQHLDSALQASRVHVYMYNRQWKLEHLCYKSGELITETGYMDQIIEYLYPCLIITPLDCFWEGAKLQSGTAYLLGKPPLRWTNFDPLEFLEELKKINYQVDSWEEMLNKAEVGHGYMDRPCLNPADPDCPATAPNKNSTKPLDMALVLNGGCHGLSRKYMHWQEELIVGGTVKNSTGKLVSAHALQTMFQLMTPKQMYEHFKGYEYVSHINWNEDKAAAILEAWQRTYVEVVHQSVAQNSTQKVLSFTTTTLDDILKSFSDVSVIRVASGYLLMLAYACLTMLRWDCSKSQGAVGLAGVLLVALSVAAGLGLCSLIGISFNAATTQVLPFLALGVGVDDVFLLAHAFSETGQNKRIPFEDRTGECLKRTGASVALTSISNVTAFFMAALIPIPALRAFSLQAAVVVVFNFAMVLLIFPAILSMDLYRREDRRLDIFCCFTSPCVSRVIQVEPQAYTDTHDNTRYSPPPPYSSHSFAHETQITMQSTVQLRTEYDPHTHVYYTTAEPRSEISVQPVTVTQDTLSCQSPESTSSTRDLLSQFSDSSLHCLEPPCTKWTLSSFAEKHYAPFLLKPKAKVVVIFLFLGLLGVSLYGTTRVRDGLDLTDIVPRETREYDFIAAQFKYFSFYNMYIVTQKADYPNIQHLLYDLHRSFSNVKYVMLEENKQLPKMWLHYFRDWLQGLQDAFDSDWETGKIMPNNYKNGSDDGVLAYKLLVQTGSRDKPIDISQLTKQRLVDADGIINPSAFYIYLTAWVSNDPVAYAASQANIRPHRPEWVHDKADYMPETRLRIPAAEPIEYAQFPFYLNGLRDTSDFVEAIEKVRTICSNYTSLGLSSYPNGYPFLFWEQYIGLRHWLLLFISVVLACTFLVCAVFLLNPWTAGIIVMVLALMTVELFGMMGLIGIKLSAVPVVILIASVGIGVEFTVHVALAFLTAIGDKNRRAVLALEHMFAPVLDGAVSTLLGVLMLAGSEFDFIVRYFFAVLAILTILGVLNGLVLLPVLLSFFGPYPEVSPANGLNRLPTPSPEPPPSVVRFAMPPGHTHSGSDSSDSEYSSQTTVSGLSEELRHYEAQQGAGGPAHQVIVEATENPVFAHSTVVHPESRHHPPSNPRQQPHLDSGSLPPGRQGQQPRRDPPREGLWPPPYRPRRDAFEISTEGHSGPSNRARWGPRGARSHNPRNPASTAMGSSVPGYCQPITTVTASASVTVAVHPPPVPGPGRNPRGGLCPGYPETDHGLFEDPHVPFHVRCERRDSKVEVIELQDVECEERPRGSSSN
As for B2, the binding entry in assay [4] is listed as “binds”.
